Results published in US20120107933A1 (GOVERNMENT OF THE UNITED STATES AS REPRESENTED BY THE …, published 2012).
No constants are given. Whether binding was seen depends on the method and setting. Some results given as binding are weak or reduced against the parent protein; the word gives no strength.

By UniProt entry, the sequences of proteins in these tests, tags left out. Where a name states a change or a piece, a line headed by the entry shows the natural chain unless it says otherwise. Chains listed by the source or under a name are the forms on record and can include a tag or linker.
recombinant mesothelin protein produced in E. coli (Q13421, form named): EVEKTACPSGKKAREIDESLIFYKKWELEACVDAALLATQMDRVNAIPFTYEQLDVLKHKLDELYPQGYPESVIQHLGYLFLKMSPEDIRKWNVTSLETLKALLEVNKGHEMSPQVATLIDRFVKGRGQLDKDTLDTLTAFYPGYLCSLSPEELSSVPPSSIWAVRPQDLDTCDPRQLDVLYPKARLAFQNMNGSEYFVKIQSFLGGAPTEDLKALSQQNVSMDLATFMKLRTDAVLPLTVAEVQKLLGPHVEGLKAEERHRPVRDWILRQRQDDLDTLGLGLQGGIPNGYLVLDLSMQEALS

Target: recombinant mesothelin protein produced in E. coli (UniProt Q13421)
Assay: phage ELISA

B1: HN1 scFv (monoclonal phage scFv) (scFv)
scFv: QVQLVQSGAEVKRPGASVQVSCRASGYSINTYYMQWVRQAPGAGLEWMGVINPSGVTSYAQKFQGRVTLTNDTSTNTVYMQLNSLTSADTAVYYCARWALWGDFGMDVWGKGTLVTVSSGGGGSGGGGSGGGGSDIQMTQSPSTLSASIGDRVTITCRASEGIYHWLAWYQQKPGKAPKLLIYKASSLASGAPSRFSGSGSGTDFTLTISSLQPDDFATYYCQQYSNYPLTFGGGTKLEIK
With B1 the binding was “binds”.
